Source: article PMC8465894

T1: hPIGK-StrepII (human) (UniProt Q92643)
T1 sequence: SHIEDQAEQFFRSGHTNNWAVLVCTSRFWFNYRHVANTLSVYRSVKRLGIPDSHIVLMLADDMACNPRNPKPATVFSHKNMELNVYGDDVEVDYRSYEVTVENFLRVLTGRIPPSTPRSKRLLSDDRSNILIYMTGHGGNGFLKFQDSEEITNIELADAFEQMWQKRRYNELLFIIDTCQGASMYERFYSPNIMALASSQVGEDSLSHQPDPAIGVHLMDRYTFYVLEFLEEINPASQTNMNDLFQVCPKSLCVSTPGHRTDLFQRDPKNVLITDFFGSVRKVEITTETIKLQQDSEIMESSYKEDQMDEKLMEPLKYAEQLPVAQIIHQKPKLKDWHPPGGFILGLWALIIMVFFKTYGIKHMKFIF

T2: hPIGK-StrepII-GST (human) (UniProt Q92643)
T2 sequence: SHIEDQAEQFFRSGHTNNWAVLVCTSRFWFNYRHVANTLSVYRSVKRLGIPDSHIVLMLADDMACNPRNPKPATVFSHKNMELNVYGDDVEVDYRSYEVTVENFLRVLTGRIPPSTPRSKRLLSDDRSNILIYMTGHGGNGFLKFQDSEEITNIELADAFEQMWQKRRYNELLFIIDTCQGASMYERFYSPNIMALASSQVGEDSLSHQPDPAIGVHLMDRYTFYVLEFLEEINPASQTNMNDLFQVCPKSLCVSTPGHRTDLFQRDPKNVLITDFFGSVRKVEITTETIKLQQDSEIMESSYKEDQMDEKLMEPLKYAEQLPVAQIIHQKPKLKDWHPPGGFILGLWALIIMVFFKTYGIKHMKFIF


Assays:
hPIGK-StrepII (human) = molecular target: T1, hPIGK-StrepII (human); test: affinity purification with mass spectrometry; membranes of K562K-hPIGK-StrepII cells solubilised in 2% DDM-0.4% CHS, bound to StrepTactin Sepharose in 50 mM Tris pH 7.5, 150 mM NaCl, 0.06% GDN, eluted with 2.5 mM desthiobiotin, 4 °C; silver staining, bands cut and analysed by mass spectrometry
[1] = molecular target: T2, hPIGK-StrepII-GST (human); test: affinity purification with mass spectrometry; single-step purification of the GPI-TA complex on StrepTactin Sepharose by tagged PIGK, without reducing reagent, in DDM, DDM-CHS or digitonin; silver staining, bands confirmed by mass spectrometry

binding (hPIGK-StrepII (human))	binding [1]	Binder
binds	binds	GPAA1 (protein, UniProt O43292 1-621) MGLLSDPVRRRALARLVLRLNAPLCVLSYVAGIAWFLALVFPPLTQRTYMSENAMGSTMVEEQFAGGDRARAFARDFAAHRKKSGALPVAWLERTMRSVGLEVYTQSFSRKLPFPDETHERYMVSGTNVYGILRAPRAASTESLVLTVPCGSDSTNSQAVGLLLALAAHFRGQIYWAKDIVFLVTEHDLLGTEAWLEAYHDVNVTGMQSSPLQGRAGAIQAAVALELSSDVVTSLDVAVEGLNGQLPNLDLLNLFQTFCQKGGLLCTLQGKLQPEDWTSLDGPLQGLQTLLLMVLRQASGRPHGSHGLFLRYRVEALTLRGINSFRQYKYDLVAVGKALEGMFRKLNHLLERLHQSFFLYLLPGLSRFVSIGLYMPAVGFLLLVLGLKALELWMQLHEAGMGLEEPGGAPGPSVPLPPSQGVGLASLVAPLLISQAMGLALYVLPVLGQHVATQHFPVAEAEAVVLTLLAIYAAGLALPHNTHRVVSTQAPDRGWMALKLVALIYLALQLGCIALTNFSLGFLLATTMVPTAALAKPHGPRTLYAALLVLTSPAATLLGSLFLWRELQEAPLSLAEGWQLFLAALAQGVLEHHTYGALLFPLLSLGLYPCWLLFWNVLFWK
binds	binds	PIGT (protein, UniProt Q969N2 22-578) LAEPPRDSLREELVITPLPSGDVAATFQFRTRWDSELQREGVSHYRLFPKALGQLISKYSLRELHLSFTQGFWRTRYWGPPFLQAPSGAELWVWFQDTVTDVDKSWKELSNVLSGIFCASLNFIDSTNTVTPTASFKPLGLANDTDHYFLRYAVLPREVVCTENLTPWKKLLPCSSKAGLSVLLKADRLFHTSYHSQAVHIRPVCRNARCTSISWELRQTLSVVFDAFITGQGKKDWSLFRMFSRTLTEPCPLASESRVYVDITTYNQDNETLEVHPPPTTTYQDVILGTRKTYAIYDLLDTAMINNSRNLNIQLKWKRPPENEAPPVPFLHAQRYVSGYGLQKGELSTLLYNTHPYRAFPVLLLDTVPWYLRLYVHTLTITSKGKENKPSYIHYQPAQDRLQPHLLEMLIQLPANSVTKVSIQFERALLKWTEYTPDPNHGFYVSPSVLSALVPSMVAAKPVDWEESPLFNSLFPVSDGSNYFVRLYTEPLLVNLPTPDFSMPYNVICLTCTVVAVCYGSFYNLLTRTFHIEEPRTGGLAKRLANLIRRARGVPPL
binds	binds	PIGS (protein, UniProt Q96S52 1-555) MAAAGAAATHLEVARGKRAALFFAAVAIVLGLPLWWKTTETYRASLPYSQISGLNALQLRLMVPVTVVFTRESVPLDDQEKLPFTVVHEREIPLKYKMKIKCRFQKAYRRALDHEEEALSSGSVQEAEAMLDEPQEQAEGSLTVYVISEHSSLLPQDMMSYIGPKRTAVVRGIMHREAFNIIGRRIVQVAQAMSLTEDVLAAALADHLPEDKWSAEKRRPLKSSLGYEITFSLLNPDPKSHDVYWDIEGAVRRYVQPFLNALGAAGNFSVDSQILYYAMLGVNPRFDSASSSYYLDMHSLPHVINPVESRLGSSAASLYPVLNFLLYVPELAHSPLYIQDKDGAPVATNAFHSPRWGGIMVYNVDSKTYNASVLPVRVEVDMVRVMEVFLAQLRLLFGIAQPQLPPKCLLSGPTSEGLMTWELDRLLWARSVENLATATTTLTSLAQLLGKISNIVIKDDVASEVYKAVAAVQKSAEELASGHLASAFVASQEAVTSSELAFFDPSLLHLLYFPDDQKFAIYIPLFLPMAVPILLSLVKIFLETRKSWRKPEKTD
binds	binds	PIGU (protein, UniProt Q9H490 1-435) MAAPLVLVLVVAVTVRAALFRSSLAEFISERVEVVSPLSSWKRVVEGLSLLDLGVSPYSGAVFHETPLIIYLFHFLIDYAELVFMITDALTAIALYFAIQDFNKVVFKKQKLLLELDQYAPDVAELIRTPMEMRYIPLKVALFYLLNPYTILSCVAKSTCAINNTLIAFFILTTIKGSAFLSAIFLALATYQSLYPLTLFVPGLLYLLQRQYIPVKMKSKAFWIFSWEYAMMYVGSLVVIICLSFFLLSSWDFIPAVYGFILSVPDLTPNIGLFWYFFAEMFEHFSLFFVCVFQINVFFYTIPLAIKLKEHPIFFMFIQIAVIAIFKSYPTVGDVALYMAFFPVWNHLYRFLRNIFVLTCIIIVCSLLFPVLWHLWIYAGSANSNFFYAITLTFNVGQILLISDYFYAFLRREYYLTHGLYLTAKDGTEAMLVLK

Results are given in words; binding and its absence hold for the method and conditions named. Binding seen in cells or lysates may run through a third protein. These calls come from enrichment with a bait or labelling near it, and not all partners need be listed. For some assays here: Sequences can lack the tags named with a protein.
